According to patent US20070197430A1, “Conjugates And Therapeutic Uses Thereof” (priority 2004, published 2007):
At least one structure is not confirmed: it was looked up by name or label, or the drawing left a doubt. Peptide text beside a SMILES is read from it.

By UniProt entry, the sequences of proteins in these tests, tags left out. Where a name states a change or a piece, a line headed by the entry shows the natural chain unless it says otherwise. Residues count along the entry.
UniProt P10415, 1-217 limits assumed: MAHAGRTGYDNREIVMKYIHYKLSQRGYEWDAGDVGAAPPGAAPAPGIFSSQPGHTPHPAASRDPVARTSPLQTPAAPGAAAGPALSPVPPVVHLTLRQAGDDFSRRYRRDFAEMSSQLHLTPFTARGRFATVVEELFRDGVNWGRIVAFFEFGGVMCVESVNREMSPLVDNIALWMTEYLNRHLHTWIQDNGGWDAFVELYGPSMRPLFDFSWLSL

What was measured:
[1] = target: Bcl-2 ΔC22 (Homo sapiens, UniProt P10415); experiment: Competition assay with biotinylated Bim-BH3 peptide; type: binding; conditions: text says Bcl-2 and Bcl-xL
Source text: Alphascreen (Amplified Luminsecent Proximity Homogenous Assay) is a bead based technology which measures a biological interaction between molecules. The assay consists of two hydrogel coated beads which, when bought into close proximity by a binding interaction, allow a transfer of singlet oxygen from a donor bead to an acceptor bead.
Upon binding a photosensitiser in the donor bead converts ambient oxygen to a more excited singlet state. This singlet oxygen then diffuses across to react with a chemiluminescer in the acceptor bead. Fluorophores within the same bead are activated, resulting in the emission of light.

[2] = Circular dichroism, alpha-helical content of peptides; type: physicochemical; conditions: 30% aqueous trifluoroethanol
Description: Circular dichroism spectra were obtained using a Jasco Model J-710 spetropolarimeter at 20° C. using the following parameters: path length, 2 mm; step resolution, 0.1 nm; speed, 20 nm/min, accumulation, 4; response, 1 second; bandwidth, 1.0 nm. The peptides were analysed at a concentration of 0.5 mg/mL in 30% aqueous TFE. The alpha-helical content of the peptides were determined by methods described in Yang et al (1986), involving comparisons of spectra with model helical peptides.

CC[C@H](C)[C@H](NC(C)=O)C(=O)N[C@@H](C)C(=O)N[C@@H](CCC(N)=O)C(=O)N[C@H]1CCC(=O)NCCCCCNC(=O)CC[C@@H](C(=O)N[C@@H](Cc2ccccc2)C(N)=O)NC(=O)[C@H](CC(=O)O)NC(=O)CNC(=O)[C@H]([C@@H](C)CC)NC(=O)[C@H](CCCNC(=N)N)NC(=O)[C@H](CCCNC(=N)N)NC(=O)[C@H](CC(C)C)NC1=O [Peptide B, Acetyl-IAQ(E1)LRRIGD(E2)F-amide] (HELM PEPTIDE1{[ac].I.A.Q.E.L.R.R.I.G.D.E.F.[am]}|CHEM1{[C(CCN[*:1])CCN[*:2]]}$PEPTIDE1,CHEM1,5:R3-1:R1|PEPTIDE1,CHEM1,12:R3-1:R2$$$V2.0)
affinity over the unconstrained 12-mer, in words [1]: outstanding increases in affinity | % Helicity [2]: 28%
